The other results are listed elsewhere or left out.
Compound: CC1Cc2ccccc2N1C(=O)C1CCCN(C1)C(=O)CCl (mixture of isomers) [TRIM25 ligand 11 (diastereomer mixture)]
Assay: probe-labelled cysteine peptide fold change vs DMSO (competition) (log2 fold change); higher = less target engagement (more negative = stronger competition)
Details: THP-1, incubation time: 4 h
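Further: competitive chemoproteomic profiling in live THP-1 cells with an iodoacetamide desthiobiotin (IA-DTB) probe, comparing probe-labelled peptide intensities in compound-treated cells against DMSO-treated controls.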

Row | Target | probe-labelled cysteine peptide fold change (10 µM) | probe-labelled cysteine peptide fold change (50 µM)
1 | FRA10AC1_Q70Z53_175_GQFFCGNK (UniProt Q70Z53) | 0.108 | 0.0338
2 | FGG_P02679_365_CHAGHLNGVYYQGGTYSK (UniProt P02679) | 0.519 | 0.367
3 | FIP1L1_Q6UN15_216_ITAEDCTMEVTPGAEIQDGR (UniProt Q6UN15) | 0.161 | -0.0208
4 | FKBPL_Q9UIM3_168_CLESMCQGEEAELQLPGHSGPPVR (UniProt Q9UIM3) | -0.0587 | 0.107
5 | GABPA_Q06546_61+69_LQCSLDAHEICLQDIQLDPER (UniProt Q06546) | 0.0282 | 0.0599
6 | FLAD1_Q8NFF5_561_CLSPGGHPTYRPAYLLENEEEER (UniProt Q8NFF5) | 0.144 | 0.271
7 | FZD2_Q14332_201_YATLEHPFHCPR (UniProt Q14332) | -0.0153 | -0.0497
8 | FLOT1_O75955_85_EMLAAACQMFLGK (UniProt O75955) | -1.02e-05 | 0.235
9 | FLII_Q13045_337_LTNLEEFMAANNNLELVPESLCR (UniProt Q13045) | 0.177 | -0.371
10 | FH_P07954_333_FEALAAHDALVELSGAMNTTACSLMK (UniProt P07954) | 0.0327 | 0.166
11 | FHL1_Q13642_7+10_FDCHYCR (UniProt Q13642) | 0.144 | 0.119
12 | FSCN1_Q16658_334_NASCYFDIEWR (UniProt Q16658) | 0.0164 | 0.151
13 | FLNB_O75369_455_SPFVVQVGEACNPNACR (UniProt O75369) | -0.0325 | 0.0382
14 | GABPA_Q06546_421_LVTECEQK (UniProt Q06546) | 0.0361 | 0.147
15 | FRG1_Q14331_205_QCEINYVK (UniProt Q14331) | -0.0875 | -0.202
16 | FLII_Q13045_46_TGLCYLPEELAALQK (UniProt Q13045) | 0.0138 | 0.154
17 | FTH1_P02794_91_KPDCDDWESGLNAMECALHLEK (UniProt P02794) | 0.166 | 0.847
18 | FKBP15_Q5T1M5_1031_DGSLPPELSCIPSHR (UniProt Q5T1M5) | 0.00994 | -0.0562
19 | GABPB1_Q06547-3_355_SLLPGVLCR (UniProt Q06547) | -0.0341 | -0.00581
20 | FOXRED1_Q96CU9_239_KVQSLGVLFCQGEVTR (UniProt Q96CU9) | 0.161 | 0.0629
21 | FTO_Q9C0B1_308_ISWDIETPGLAIPLHQGDCYFMLDDLNATHQHCVLAGSQPR (UniProt Q9C0B1) | 0.0718 | 0.149
22 | FRY_Q5TBA9_120_GEDPQFDQVISSMSSLSEYCLPSILR (UniProt Q5TBA9) | 0.113 | -0.528
23 | FKBPL_Q9UIM3_275_TVLHANLAACQLLLGQPQLAAQSCDR (UniProt Q9UIM3) | 0.114 | -0.0729
24 | FGFR1OP_O95684-3_133_TITQLECLLSIGALHFK (UniProt O95684) | -0.0773 | -0.345
25 | FRY_Q5TBA9_869_HCPTALSYAWPYAFTR (UniProt Q5TBA9) | -0.0148 | 0.0583
26 | FRA10AC1_Q70Z53_240_DCEESSHKK (UniProt Q70Z53) | -0.0485 | -0.0194
27 | FNDC3A_Q9Y2H6_560_SNPSEVVEFTTCPDKPGIPVKPSVK (UniProt Q9Y2H6) | -0.143 | -0.0723

Row | Target | probe-labelled cysteine peptide fold change (10 µM) | probe-labelled cysteine peptide fold change (50 µM)
28 | FMNL1_O95466_787_EQRPMEELSEEDRFMLCFSR (UniProt O95466) | -0.0985 | -0.177
29 | FSCN1_Q16658_226_VAFRDCEGR (UniProt Q16658) | -0.335 | -0.264
30 | FOXP1_Q9H334_29_SNGSAIQNGSGGSNHLLECGGLR (UniProt Q9H334) | 0.115 | -0.145
31 | G6PD_P11413_13_TQVCGILR (UniProt P11413) | 0.333 | 0.145
32 | FLNB_O75369_416_CVYKPMQPGPHVVK (UniProt O75369) | -0.138 | -0.165
33 | FHL3_Q13643_10_CNESLYGR (UniProt Q13643) | -0.143 | 0.144
34 | GABPB1_Q06547_331_QCIEIIENR (UniProt Q06547) | 0.0442 | -0.164
35 | FRY_Q5TBA9_2404_LVHVLSLCGQEVGLSK (UniProt Q5TBA9) | -0.00377 | -0.1
36 | FOXP1_Q9H334_317_WPGCEAVCEDFQSFLK (UniProt Q9H334) | 0.197 | -0.0107
37 | FPGS_Q05932_315_SNAALALQLAHCWLQR (UniProt Q05932) | -0.152 | -0.0338
38 | FN1_P02751_231_CNDQDTR (UniProt P02751) | 0.287 | -0.0686
39 | FRY_Q5TBA9_2009_IQACTQQGLSSK (UniProt Q5TBA9) | -0.102 | -0.289
40 | FPGS_Q05932_111+116_GSTCAFTECILR (UniProt Q05932) | -0.126 | 0.109
41 | FKBP1A_P62942_23_RGQTCVVHYTGMLEDGKK (UniProt P62942) | -0.11 | -0.229
42 | FXR2_P51116_282_IYGETPEACR (UniProt P51116) | -0.117 | 0.24
43 | FRRS1_Q6ZNA5_107_NAEDLNGPPIGSFTLIDSEVSQLLTCEDIQGSAVSHR (UniProt Q6ZNA5) | 0.66 | 0.341
44 | GAB2_Q9UQC2_303_TPSNTLCR (UniProt Q9UQC2) | -0.089 | -0.0741
45 | GAB1_Q13480_213_STSSETDCNDNVPSHK (UniProt Q13480) | 0.262 | -0.000977
46 | FKBP8_Q14318_274_CLNNLAASQLK (UniProt Q14318) | 0.0345 | 0.0605
47 | FHL1_Q13642_65_FWHDTCFR (UniProt Q13642) | 0.051 | -0.0125
48 | FSCN1_Q16658_260_VGKDELFALEQSCAQVVLQAANER (UniProt Q16658) | 0.0245 | -0.148
49 | FLT3_P36888_35_CVLINHK (UniProt P36888) | -0.123 | -0.193
50 | FGR_P09769_415_LIKDDEYNPCQGSK (UniProt P09769) | 0.0828 | 0.00977
51 | FUBP3_Q96I24_366_CGLVIGK (UniProt Q96I24) | -0.0888 | 0.0606
52 | FLAD1_Q8NFF5_236_LHYGTDPCTGQPFR (UniProt Q8NFF5) | 0.143 | 0.0569
53 | FLNB_O75369_2556_AGSNMLLIGVHGPTTPCEEVSMK (UniProt O75369) | 0.0188 | -0.189
54 | FKBP5_Q13451_215_EEQCILYLGPR (UniProt Q13451) | -0.107 | -0.112

Row | Target | probe-labelled cysteine peptide fold change (10 µM) | probe-labelled cysteine peptide fold change (50 µM)
55 | FNDC3B_Q53EP0_1025_LTEFTCYSFR (UniProt Q53EP0) | 0.331 | 0.28
56 | FSCN1_Q16658_61_QIWTLEQPPDEAGSAAVCLR (UniProt Q16658) | -0.242 | 0.167
57 | FTO_Q9C0B1_294+308_ISWDIETPGLAIPLHQGDCYFMLDDLNATHQHCVLAGSQPR (UniProt Q9C0B1) | -0.257 | 0.0427
58 | FLII_Q13045_933_LPEEEFGHFYTQDCYVFLCR (UniProt Q13045) | 0.114 | 0.154
59 | FLNB_O75369_2501_SSTETCYSAIPK (UniProt O75369) | -0.0551 | -0.0775
60 | GABPA_Q06546_338_DCISWVGDEGEFK (UniProt Q06546) | 0.0383 | -0.0188
61 | FTSJ3_Q8IY81_294_ASEIMVDDEELAQHPATTEDIRVCCQDIR (UniProt Q8IY81) | 0.186 | 0.257
62 | FUCA1_P04066_296_FKPQSLPDHKWEMCTSIDK (UniProt P04066) | 0.00925 | -0.32
63 | FLNB_O75369_2154_NSHCVR (UniProt O75369) | 0.172 | 0.148
64 | GAB2_Q9UQC2_237_LAQGNGHCVNGISGQVHGFYSLPK (UniProt Q9UQC2) | 0.0237 | -0.0461
65 | FLNB_O75369_769_ANEPTHFTVDCTEAGEGDVSVGIK (UniProt O75369) | 0.0914 | -0.146
66 | FIG4_Q92562_839_NSQQPCSR (UniProt Q92562) | 0.0248 | -0.4
67 | FRY_Q5TBA9_2174_IAQVCLEEK (UniProt Q5TBA9) | 0.134 | -0.0684
68 | FNDC3B_Q53EP0_966_LECAAAGPQSLK (UniProt Q53EP0) | 0.0509 | 0.0341
69 | FNBP1L_Q5T0N5_543_GPPQQHGHHNEFDDEFEDDDPLPAIGHCK (UniProt Q5T0N5) | 0.0268 | -0.406
70 | FGD3_Q5JSP0_284_QEVCGNLTLQHHMLEPVQR (UniProt Q5JSP0) | 0.0112 | -0.0514
71 | FOCAD_Q5VW36_1559_CLLEMTDDDANR (UniProt Q5VW36) | -0.0541 | 0.112
72 | FTO_Q9C0B1_392_CTDWWCQPMAQLEALWK (UniProt Q9C0B1) | -0.232 | -0.353
73 | FYCO1_Q9BQS8_709+719_EGECQQLREEVEQCQQLAEAR (UniProt Q9BQS8) | -0.293 | -0.236
74 | FKRP_Q9H9S5_191_CDALDGDAVVLLR (UniProt Q9H9S5) | 0.0347 | -0.00253
75 | FN1_P02751_374_TFYSCTTEGR (UniProt P02751) | 0.108 | -0.294
76 | FRYL_O94915_1042_CHFSALVANIIQNVPVHQR (UniProt O94915) | 0.0176 | -0.0237
77 | FLNB_O75369_2431_MDCQETPEGYK (UniProt O75369) | 0.0123 | 0.0204
78 | FLII_Q13045_982_EGEEATAEAEEKQPEEDFQCIVYFWQGR (UniProt Q13045) | 0.157 | -0.0259
79 | FLII_Q13045_560_ACSAIHAVNLR (UniProt Q13045) | 0.0807 | 0.0422
80 | GAK_O14976_560_YIEYMCDMVAEEPITPHSKPILVR (UniProt O14976) | -0.164 | -0.257
